Measurements reported in PubChem BioAssay AID1224830 (NIAID, 2016).
Assay: 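Regulators of TLR4 signalling towards TNF-alpha in macrophage-like cells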 (primary screen). System: human THP-1 monocytic leukaemia cells, TNF dual-luciferase reporter clone, PMA-differentiated to macrophage-like cells. Reagents: siRNA pool against human genes, 50 nM. Time to read-out: LPS for 4 h, given about 3 days after siRNA transfection. Treatment: bacterial LPS (TLR4 ligand), 10 ng/ml. Read-out: 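Ratio of firefly to renilla light, scaled to the plate median and expressed as a robust z-score per replicate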. Direction: TNF reporter robust z-score: higher = stronger TNF reporter response to LPS. Active means: 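Each well counts as active if its z-score is over 2.8 or under -1.5; controls are left without a call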.
This is one part, drawn at random, of about 18,000 deposited reagents. About 2,900 of all reagents (16%) count as active. 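Calls are made per well; low scores hint the gene aids the LPS response, high scores that it dampens it.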 Entries without a mark were called inactive. Repeated entries: four replicate wells of each siRNA pool. Reagent sequences are not shown.

gene | TNF reporter robust z-score
LOC90462 (retired record) | -0.58
LOC90462 (retired record) | -0.51
LOC90462 (retired record) | -0.44
LOC90462 (retired record) | -0.23
IGIP (IgA inducing protein) | 0.75
IGIP (IgA inducing protein) | 2.29
IGIP (IgA inducing protein) | 1.96
IGIP (IgA inducing protein) | 2.28
RUBCNL (rubicon like autophagy enhancer) | 1.88
RUBCNL (rubicon like autophagy enhancer) | 0.77
RUBCNL (rubicon like autophagy enhancer) | 1.74
RUBCNL (rubicon like autophagy enhancer) | 0.78
APPL2 | 2.41
APPL2 | 2.93 (active)
APPL2 | 0.53
APPL2 | 0.81

The list goes on, starting with the last 3 of the part before.
gene | TNF reporter robust z-score
APPL2 | 2.93 (active)
APPL2 | 0.53
APPL2 | 0.81
CLPX | -0.91
CLPX | -0.9
CLPX | 0.21
CLPX | 1.39
UBE2R2 (ubiquitin conjugating enzyme E2 R2) | -0.94
UBE2R2 (ubiquitin conjugating enzyme E2 R2) | 0.06
UBE2R2 (ubiquitin conjugating enzyme E2 R2) | 0.3
UBE2R2 (ubiquitin conjugating enzyme E2 R2) | 1.19
RUSC1-AS1 (RUSC1 antisense RNA 1) | 0.49
RUSC1-AS1 (RUSC1 antisense RNA 1) | 0.38
RUSC1-AS1 (RUSC1 antisense RNA 1) | 1.22
RUSC1-AS1 (RUSC1 antisense RNA 1) | 1.12
SYCE1 (synaptonemal complex central element protein 1) | -0.54
SYCE1 (synaptonemal complex central element protein 1) | -1.39
SYCE1 (synaptonemal complex central element protein 1) | -1.05
SYCE1 (synaptonemal complex central element protein 1) | -0.82
EXOC3 (exocyst complex component 3) | -0.65
EXOC3 (exocyst complex component 3) | -0.69
EXOC3 (exocyst complex component 3) | 0.19
EXOC3 (exocyst complex component 3) | -0.06
KRT25 (keratin 25) | -0.86
KRT25 (keratin 25) | -0.29
KRT25 (keratin 25) | -1.09
KRT25 (keratin 25) | -0.96
DAD1 (defender against cell death 1) | -1.22
DAD1 (defender against cell death 1) | -1.6 (active)
DAD1 (defender against cell death 1) | -1.67 (active)
DAD1 (defender against cell death 1) | -1.42
STARD4 (StAR related lipid transfer domain containing 4) | -1.46
STARD4 (StAR related lipid transfer domain containing 4) | -0.35
STARD4 (StAR related lipid transfer domain containing 4) | -0.43
